The supplement of paper PMC6411743
± gives the standard deviation of the averaged measurements. Some of the results follow.

Chains of the proteins cited; added tags and fusions are not shown. Lines headed by an entry give the natural chain unless they say otherwise; changes in a name come on top.
UniProt P52333: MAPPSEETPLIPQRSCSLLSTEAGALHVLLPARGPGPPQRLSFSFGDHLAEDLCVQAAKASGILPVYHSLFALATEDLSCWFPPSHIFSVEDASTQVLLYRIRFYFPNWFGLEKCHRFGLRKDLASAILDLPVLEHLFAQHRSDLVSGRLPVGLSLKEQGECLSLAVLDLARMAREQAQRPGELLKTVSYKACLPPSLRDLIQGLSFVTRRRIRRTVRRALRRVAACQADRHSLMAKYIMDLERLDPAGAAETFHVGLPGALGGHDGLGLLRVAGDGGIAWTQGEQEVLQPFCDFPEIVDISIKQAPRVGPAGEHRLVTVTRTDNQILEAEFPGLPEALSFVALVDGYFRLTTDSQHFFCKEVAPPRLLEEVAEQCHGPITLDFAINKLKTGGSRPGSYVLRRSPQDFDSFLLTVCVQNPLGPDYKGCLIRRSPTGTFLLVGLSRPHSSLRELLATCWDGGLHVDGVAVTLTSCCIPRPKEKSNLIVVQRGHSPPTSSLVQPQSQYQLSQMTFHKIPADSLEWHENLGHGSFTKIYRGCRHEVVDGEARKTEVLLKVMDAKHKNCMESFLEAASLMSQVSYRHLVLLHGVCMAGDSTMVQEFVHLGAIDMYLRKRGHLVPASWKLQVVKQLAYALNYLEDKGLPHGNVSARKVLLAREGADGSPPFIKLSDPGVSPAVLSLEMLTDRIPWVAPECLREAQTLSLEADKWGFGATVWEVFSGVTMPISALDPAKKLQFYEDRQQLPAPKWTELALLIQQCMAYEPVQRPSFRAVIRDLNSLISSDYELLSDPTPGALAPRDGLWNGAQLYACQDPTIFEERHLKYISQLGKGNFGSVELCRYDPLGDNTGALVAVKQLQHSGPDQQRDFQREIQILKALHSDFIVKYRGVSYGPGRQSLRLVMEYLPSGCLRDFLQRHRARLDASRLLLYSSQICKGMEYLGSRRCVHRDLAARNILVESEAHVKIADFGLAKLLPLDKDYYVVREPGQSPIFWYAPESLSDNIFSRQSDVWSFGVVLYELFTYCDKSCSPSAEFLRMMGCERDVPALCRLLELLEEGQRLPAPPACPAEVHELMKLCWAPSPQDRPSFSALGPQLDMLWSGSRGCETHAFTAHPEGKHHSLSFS
UniProt P61011: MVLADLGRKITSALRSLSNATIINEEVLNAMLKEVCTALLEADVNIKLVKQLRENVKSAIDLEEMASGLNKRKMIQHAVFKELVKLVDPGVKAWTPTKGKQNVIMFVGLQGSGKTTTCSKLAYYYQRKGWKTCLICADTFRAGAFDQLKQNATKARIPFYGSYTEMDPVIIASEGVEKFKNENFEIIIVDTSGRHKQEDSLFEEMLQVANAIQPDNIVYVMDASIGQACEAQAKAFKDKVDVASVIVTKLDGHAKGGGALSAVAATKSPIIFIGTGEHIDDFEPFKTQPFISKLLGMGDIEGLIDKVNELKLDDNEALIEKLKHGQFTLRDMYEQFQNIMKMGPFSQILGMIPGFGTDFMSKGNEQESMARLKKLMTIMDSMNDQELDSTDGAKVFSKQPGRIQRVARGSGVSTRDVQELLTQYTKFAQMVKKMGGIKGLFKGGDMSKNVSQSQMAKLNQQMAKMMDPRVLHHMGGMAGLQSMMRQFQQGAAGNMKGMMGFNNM
UniProt P53985: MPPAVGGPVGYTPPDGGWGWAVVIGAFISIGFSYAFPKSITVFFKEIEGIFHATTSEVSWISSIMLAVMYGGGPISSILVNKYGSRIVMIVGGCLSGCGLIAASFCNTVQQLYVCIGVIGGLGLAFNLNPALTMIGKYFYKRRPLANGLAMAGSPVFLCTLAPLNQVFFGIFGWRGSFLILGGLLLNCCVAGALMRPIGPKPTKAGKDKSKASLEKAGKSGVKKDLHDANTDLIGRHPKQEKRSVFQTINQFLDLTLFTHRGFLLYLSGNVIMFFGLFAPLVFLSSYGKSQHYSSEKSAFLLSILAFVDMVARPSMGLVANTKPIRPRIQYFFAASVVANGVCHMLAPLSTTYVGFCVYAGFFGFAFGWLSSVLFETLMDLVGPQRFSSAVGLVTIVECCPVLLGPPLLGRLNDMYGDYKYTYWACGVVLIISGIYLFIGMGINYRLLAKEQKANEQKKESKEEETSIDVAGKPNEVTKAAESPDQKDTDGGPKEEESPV
UniProt P60174, whole entry: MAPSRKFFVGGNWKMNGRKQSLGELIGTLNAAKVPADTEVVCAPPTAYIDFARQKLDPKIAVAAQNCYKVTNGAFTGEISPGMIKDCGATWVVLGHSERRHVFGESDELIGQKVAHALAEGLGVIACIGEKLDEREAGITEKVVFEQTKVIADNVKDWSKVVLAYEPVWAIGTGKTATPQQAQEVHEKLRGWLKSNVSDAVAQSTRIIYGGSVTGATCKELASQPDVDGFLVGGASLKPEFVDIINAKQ
UniProt P51649: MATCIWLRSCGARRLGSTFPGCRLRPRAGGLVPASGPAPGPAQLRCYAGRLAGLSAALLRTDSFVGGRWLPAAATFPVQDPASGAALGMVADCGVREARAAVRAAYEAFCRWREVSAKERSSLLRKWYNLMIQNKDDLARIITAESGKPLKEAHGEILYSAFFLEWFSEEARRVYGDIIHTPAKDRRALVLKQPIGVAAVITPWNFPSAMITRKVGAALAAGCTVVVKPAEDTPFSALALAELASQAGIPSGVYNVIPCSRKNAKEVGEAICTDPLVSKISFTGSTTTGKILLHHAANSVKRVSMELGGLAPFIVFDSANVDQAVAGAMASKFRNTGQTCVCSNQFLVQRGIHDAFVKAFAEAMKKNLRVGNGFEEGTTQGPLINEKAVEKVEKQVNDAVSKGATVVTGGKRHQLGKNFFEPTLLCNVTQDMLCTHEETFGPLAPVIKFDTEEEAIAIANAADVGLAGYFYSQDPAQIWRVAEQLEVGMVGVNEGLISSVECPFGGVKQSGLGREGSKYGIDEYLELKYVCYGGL
UniProt P61018: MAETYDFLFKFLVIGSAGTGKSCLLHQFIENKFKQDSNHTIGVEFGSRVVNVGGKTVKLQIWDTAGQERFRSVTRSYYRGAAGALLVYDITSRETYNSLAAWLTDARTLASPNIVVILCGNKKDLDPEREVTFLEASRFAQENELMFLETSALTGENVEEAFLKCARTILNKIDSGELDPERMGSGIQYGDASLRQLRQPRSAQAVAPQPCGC
UniProt P58557: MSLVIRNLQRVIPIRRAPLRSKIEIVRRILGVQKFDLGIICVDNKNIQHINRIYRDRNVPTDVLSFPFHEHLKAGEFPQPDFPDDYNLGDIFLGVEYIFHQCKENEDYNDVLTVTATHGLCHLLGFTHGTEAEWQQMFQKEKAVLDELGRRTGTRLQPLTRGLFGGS
UniProt P50897: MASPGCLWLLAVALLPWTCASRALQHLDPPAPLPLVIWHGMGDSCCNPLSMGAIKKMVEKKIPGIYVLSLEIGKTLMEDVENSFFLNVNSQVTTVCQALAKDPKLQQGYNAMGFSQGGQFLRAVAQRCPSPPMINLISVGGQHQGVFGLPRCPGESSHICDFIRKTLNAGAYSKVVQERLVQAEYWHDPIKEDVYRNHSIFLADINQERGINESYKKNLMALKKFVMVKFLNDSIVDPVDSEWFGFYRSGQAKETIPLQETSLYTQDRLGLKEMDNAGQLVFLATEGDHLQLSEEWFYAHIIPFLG
UniProt P51003: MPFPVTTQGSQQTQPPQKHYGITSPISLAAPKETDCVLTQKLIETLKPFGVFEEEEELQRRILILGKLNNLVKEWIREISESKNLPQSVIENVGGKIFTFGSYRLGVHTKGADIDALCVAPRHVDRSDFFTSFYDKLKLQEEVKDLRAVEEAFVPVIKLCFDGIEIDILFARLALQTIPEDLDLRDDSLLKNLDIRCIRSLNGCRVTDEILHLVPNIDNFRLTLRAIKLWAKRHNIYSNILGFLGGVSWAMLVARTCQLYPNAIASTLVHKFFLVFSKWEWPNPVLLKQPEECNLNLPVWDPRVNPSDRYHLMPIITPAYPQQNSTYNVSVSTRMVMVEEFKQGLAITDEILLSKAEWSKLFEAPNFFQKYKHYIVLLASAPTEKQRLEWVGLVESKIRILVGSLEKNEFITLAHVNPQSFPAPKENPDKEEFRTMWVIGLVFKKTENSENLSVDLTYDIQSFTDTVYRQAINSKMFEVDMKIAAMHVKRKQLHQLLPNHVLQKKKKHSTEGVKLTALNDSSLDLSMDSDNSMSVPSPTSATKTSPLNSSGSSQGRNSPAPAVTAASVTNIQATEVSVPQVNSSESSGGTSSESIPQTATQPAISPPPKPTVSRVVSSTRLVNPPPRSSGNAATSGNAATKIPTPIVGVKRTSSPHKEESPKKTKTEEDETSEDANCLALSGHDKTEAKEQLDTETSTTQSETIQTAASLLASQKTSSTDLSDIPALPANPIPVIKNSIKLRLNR
UniProt P51858: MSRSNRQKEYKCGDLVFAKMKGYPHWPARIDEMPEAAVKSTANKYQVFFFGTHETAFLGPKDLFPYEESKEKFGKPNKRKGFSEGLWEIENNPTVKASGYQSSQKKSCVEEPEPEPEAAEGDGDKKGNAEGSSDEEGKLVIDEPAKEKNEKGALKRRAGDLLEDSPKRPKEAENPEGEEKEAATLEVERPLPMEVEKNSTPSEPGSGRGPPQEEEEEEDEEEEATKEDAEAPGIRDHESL
UniProt P55201: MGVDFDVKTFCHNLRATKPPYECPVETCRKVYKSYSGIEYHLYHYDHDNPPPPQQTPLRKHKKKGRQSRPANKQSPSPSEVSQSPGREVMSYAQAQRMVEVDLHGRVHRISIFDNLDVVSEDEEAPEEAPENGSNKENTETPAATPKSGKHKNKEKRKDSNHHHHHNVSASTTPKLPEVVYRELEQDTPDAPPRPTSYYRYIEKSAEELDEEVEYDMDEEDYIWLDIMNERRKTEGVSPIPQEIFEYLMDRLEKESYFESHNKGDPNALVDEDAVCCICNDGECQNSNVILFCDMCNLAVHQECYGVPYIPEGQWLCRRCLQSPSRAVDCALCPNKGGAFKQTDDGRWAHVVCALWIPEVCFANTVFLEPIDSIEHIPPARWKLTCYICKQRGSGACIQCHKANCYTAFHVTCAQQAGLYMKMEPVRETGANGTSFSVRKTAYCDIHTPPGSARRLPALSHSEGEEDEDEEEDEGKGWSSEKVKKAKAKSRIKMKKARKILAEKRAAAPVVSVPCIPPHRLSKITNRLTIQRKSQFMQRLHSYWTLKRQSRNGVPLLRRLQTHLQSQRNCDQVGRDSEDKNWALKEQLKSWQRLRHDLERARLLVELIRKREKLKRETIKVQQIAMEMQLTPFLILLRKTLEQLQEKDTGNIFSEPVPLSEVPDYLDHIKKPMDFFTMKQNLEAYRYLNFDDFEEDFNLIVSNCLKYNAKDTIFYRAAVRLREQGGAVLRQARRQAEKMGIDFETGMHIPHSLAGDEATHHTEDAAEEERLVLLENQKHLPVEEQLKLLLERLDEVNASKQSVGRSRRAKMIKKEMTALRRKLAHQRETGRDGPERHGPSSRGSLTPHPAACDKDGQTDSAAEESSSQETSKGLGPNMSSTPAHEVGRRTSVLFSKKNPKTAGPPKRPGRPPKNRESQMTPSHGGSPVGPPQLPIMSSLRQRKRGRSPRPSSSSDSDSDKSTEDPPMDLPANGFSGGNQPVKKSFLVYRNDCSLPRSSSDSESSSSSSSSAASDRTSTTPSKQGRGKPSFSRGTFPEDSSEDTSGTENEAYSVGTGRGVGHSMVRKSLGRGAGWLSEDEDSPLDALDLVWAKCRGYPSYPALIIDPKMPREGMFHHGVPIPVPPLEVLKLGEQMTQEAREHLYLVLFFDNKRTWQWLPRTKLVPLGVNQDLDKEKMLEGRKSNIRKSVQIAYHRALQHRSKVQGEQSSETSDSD
UniProt P53609, whole entry, looked up: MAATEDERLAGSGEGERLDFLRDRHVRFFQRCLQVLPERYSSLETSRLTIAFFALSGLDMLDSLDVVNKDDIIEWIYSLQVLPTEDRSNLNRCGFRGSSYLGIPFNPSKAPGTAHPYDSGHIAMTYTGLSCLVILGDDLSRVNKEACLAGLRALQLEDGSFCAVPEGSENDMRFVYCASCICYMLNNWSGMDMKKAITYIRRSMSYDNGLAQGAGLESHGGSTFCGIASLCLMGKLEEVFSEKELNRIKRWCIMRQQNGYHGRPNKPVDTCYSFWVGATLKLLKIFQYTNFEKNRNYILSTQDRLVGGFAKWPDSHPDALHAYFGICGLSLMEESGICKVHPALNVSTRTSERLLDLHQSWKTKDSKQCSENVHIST
UniProt P57076: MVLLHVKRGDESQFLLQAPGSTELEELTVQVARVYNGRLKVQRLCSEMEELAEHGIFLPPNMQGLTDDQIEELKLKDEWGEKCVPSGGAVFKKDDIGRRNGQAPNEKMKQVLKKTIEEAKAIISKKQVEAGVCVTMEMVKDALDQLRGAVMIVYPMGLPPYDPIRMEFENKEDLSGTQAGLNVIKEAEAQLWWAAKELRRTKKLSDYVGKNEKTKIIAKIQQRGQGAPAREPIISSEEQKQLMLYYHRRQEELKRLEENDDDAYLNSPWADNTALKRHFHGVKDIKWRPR

Compound: Nc1nc2c(ncn2[C@@H]2O[C@H](COP(=O)(O)OP(=O)(O)OP(=O)(O)O)[C@@H](O)[C@H]2O)c(=O)[nH]1 [guanosine triphosphate]
Assay: NP40-soluble protein abundance relative to vehicle (solubility fold change) (ratio); higher = more soluble protein in presence of GTP
Method in brief: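 Crude Jurkat lysate, prepared by Dounce homogenisation, was exposed to eight concentrations from 0.1 to 10 mM for 10 min at room temperature and then 3 min at 37 °C. Solubilisation used 0.8% NP40 with benzonase for 60 min at 4 °C, followed by ultracentrifugation and TMT labelling of the supernatant for LC-MS/MS. After vsn normalisation of intensities, each value is the fold change against the detergent-processed vehicle within each replicate, across three independent experiments.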

Target | NP40-soluble protein abundance (concentration: 0.1mM) | NP40-soluble protein abundance (concentration: 0.5mM) | NP40-soluble protein abundance (concentration: 1mM) | NP40-soluble protein abundance (concentration: 2mM) | NP40-soluble protein abundance (concentration: 4mM) | NP40-soluble protein abundance (concentration: 6mM) | NP40-soluble protein abundance (concentration: 8mM) | NP40-soluble protein abundance (concentration: 10mM)
UniProt P52333 and related entries | 0.957 ± 0.079 | 0.974 ± 0.021 | 0.947 ± 0.012 | 0.91668 ± 0.00076 | 0.89192 ± 0.00027 | 0.9404 ± 0.0068 | 0.885 ± 0.06 | 0.879 ± 0.024
UniProt P62140 | 1.02 ± 0.043 | 0.959 ± 0.014 | 0.951 ± 0.027 | 0.945 ± 0.044 | 0.981 ± 0.042 | 0.942 ± 0.016 | 0.987 ± 0.034 | 0.961 ± 0.025
UniProt P52209 and related entries | 0.9759 ± 0.0051 | 0.964 ± 0.012 | 0.926 ± 0.024 | 0.883 ± 0.034 | 0.881 ± 0.036 | 0.875 ± 0.023 | 0.865 ± 0.044 | 0.833 ± 0.047
UniProt P61927 and related entries | 0.971 ± 0.068 | 0.983 ± 0.087 | 1.08 ± 0.16 | 1.03 ± 0.18 | 1.03 ± 0.2 | 1.02 ± 0.22 | 0.831 ± 0.2 | 1.15 ± 0.28
SRP54 (UniProt P61011) | 1.01 ± 0.021 | 1.015 ± 0.0062 | 0.981 ± 0.012 | 1.003 ± 0.0096 | 1.03 ± 0.013 | 1.03 ± 0.018 | 1.03 ± 0.024 | 1.01 ± 0.023
SLC16A1 (UniProt P53985) | 0.971 ± 0.051 | 1.04 ± 0.042 | 1.04 ± 0.066 | 1.04 ± 0.057 | 1.03 ± 0.064 | 1.05 ± 0.069 | 1.069 ± 0.0032 | 1.07 ± 0.078
UniProt P62854 | 0.922 ± 0.046 | 0.897 ± 0.063 | 0.96 ± 0.11 | 0.961 ± 0.13 | 0.944 ± 0.14 | 0.905 ± 0.15 | 0.697 ± 0.11 | 0.973 ± 0.17
KNTC1 (UniProt P50748) | 1.1 ± 0.1 | 1.13 ± 0.11 | 1.05 ± 0.049 | 1.1 ± 0.06 | 1.08 ± 0.07 | 1.04 ± 0.047 | 1.02 ± 0.047 | 0.971 ± 0.083
UniProt P63010 and related entries | 0.986 ± 0.014 | 1.07 ± 0.047 | 0.996 ± 0.021 | 1.01 ± 0.014 | 0.965 ± 0.02 | 1.03 ± 0.032 | 0.998 ± 0.012 | 1.03 ± 0.065
POLG (UniProt P54098) | 1.05 ± 0.13 | 1.15 ± 0.089 | 0.973 ± 0.034 | 1.06 ± 0.13 | 1.03 ± 0.14 | 1 ± 0.084 | 0.948 ± 0.035 | 1 ± 0.11
UniProt P52735 and related entries | 1.11 ± 0.081 | 1.03 ± 0.084 | 1 ± 0.085 | 0.943 ± 0.084 | 0.985 ± 0.12 | 0.99 ± 0.084 | 0.954 ± 0.087 | 0.889 ± 0.09
UniProt P60174 and related entries | 0.843 ± 0.094 | 0.884 ± 0.1 | 0.875 ± 0.096 | 0.824 ± 0.12 | 0.817 ± 0.12 | 0.842 ± 0.11 | 0.813 ± 0.096 | 0.835 ± 0.13
UniProt P51649 and related entries | 1.02 ± 0.03 | 1.03 ± 0.026 | 0.967 ± 0.014 | 0.965 ± 0.03 | 0.946 ± 0.031 | 0.938 ± 0.038 | 0.9406 ± 0.0074 | 0.906 ± 0.031
MRPS35 (UniProt P82673) | 1.01 ± 0.18 | 1.07 ± 0.2 | 1.23 ± 0.34 | 1.31 ± 0.33 | 1.29 ± 0.35 | 1.26 ± 0.35 | 1.19 ± 0.35 | 1.17 ± 0.37
UniProt P61018 and related entries | 1.07 ± 0.098 | 1.07 ± 0.043 | 0.976 ± 0.058 | 0.975 ± 0.063 | 0.942 ± 0.058 | 0.951 ± 0.054 | 0.889 ± 0.074 | 0.881 ± 0.1
SUCLG1 (UniProt P53597) | 0.958 ± 0.08 | 0.942 ± 0.063 | 0.956 ± 0.062 | 0.921 ± 0.071 | 0.936 ± 0.064 | 0.915 ± 0.044 | 0.922 ± 0.083 | 0.906 ± 0.065
UniProt P62829 | 0.976 ± 0.081 | 0.973 ± 0.069 | 0.949 ± 0.082 | 0.941 ± 0.18 | 0.886 ± 0.16 | 0.844 ± 0.17 | 0.769 ± 0.13 | 0.839 ± 0.15
MRPS9 (UniProt P82933) | 1.1 ± 0.086 | 1.18 ± 0.16 | 1.23 ± 0.25 | 1.34 ± 0.31 | 1.37 ± 0.37 | 1.3 ± 0.33 | 1.32 ± 0.36 | 1.21 ± 0.33

Complete entries from above.
SRP54 (UniProt P61011) is listed with NP40-soluble protein abundance (concentration: 0.1mM): 1.01 ± 0.021; NP40-soluble protein abundance (concentration: 0.5mM): 1.015 ± 0.0062; NP40-soluble protein abundance (concentration: 1mM): 0.981 ± 0.012; NP40-soluble protein abundance (concentration: 2mM): 1.003 ± 0.0096; NP40-soluble protein abundance (concentration: 4mM): 1.03 ± 0.013; NP40-soluble protein abundance (concentration: 6mM): 1.03 ± 0.018; NP40-soluble protein abundance (concentration: 8mM): 1.03 ± 0.024; NP40-soluble protein abundance (concentration: 10mM): 1.01 ± 0.023
KNTC1 (UniProt P50748) is listed with NP40-soluble protein abundance (concentration: 0.1mM): 1.1 ± 0.1; NP40-soluble protein abundance (concentration: 0.5mM): 1.13 ± 0.11; NP40-soluble protein abundance (concentration: 1mM): 1.05 ± 0.049; NP40-soluble protein abundance (concentration: 2mM): 1.1 ± 0.06; NP40-soluble protein abundance (concentration: 4mM): 1.08 ± 0.07; NP40-soluble protein abundance (concentration: 6mM): 1.04 ± 0.047; NP40-soluble protein abundance (concentration: 8mM): 1.02 ± 0.047; NP40-soluble protein abundance (concentration: 10mM): 0.971 ± 0.083

(listing goes on)

Target | NP40-soluble protein abundance (concentration: 0.1mM) | NP40-soluble protein abundance (concentration: 0.5mM) | NP40-soluble protein abundance (concentration: 1mM) | NP40-soluble protein abundance (concentration: 2mM) | NP40-soluble protein abundance (concentration: 4mM) | NP40-soluble protein abundance (concentration: 6mM) | NP40-soluble protein abundance (concentration: 8mM) | NP40-soluble protein abundance (concentration: 10mM)
UniProt P56937 and related entries | 1.04 ± 0.053 | 0.9775 ± 0.0047 | 0.952 ± 0.038 | 0.872 ± 0.042 | 0.873 ± 0.032 | 0.912 ± 0.054 | 0.828 ± 0.031 | 0.801 ± 0.077
RPP38 (UniProt P78345) | 0.917 ± 0.1 | 0.912 ± 0.056 | 1.06 ± 0.089 | 1.13 ± 0.045 | 1.14 ± 0.087 | 1.12 ± 0.05 | 1.09 ± 0.09 | 1.19 ± 0.066
YBEY (UniProt P58557) | 1.02 ± 0.12 | 1.03 ± 0.14 | 1.03 ± 0.086 | 1.05 ± 0.054 | 1.04 ± 0.07 | 1.06 ± 0.089 | 1.12 ± 0.14 | 1.05 ± 0.047
UniProt P62899 | 0.879 ± 0.036 | 0.945 ± 0.089 | 0.962 ± 0.12 | 0.932 ± 0.051 | 0.939 ± 0.14 | 0.981 ± 0.18 | 0.821 ± 0.046 | 1.21 ± 0.28
PPT1 (UniProt P50897) | 0.888 ± 0.06 | 0.859 ± 0.12 | 0.968 ± 0.083 | 0.872 ± 0.12 | 0.873 ± 0.068 | 0.887 ± 0.11 | 0.876 ± 0.059 | 0.861 ± 0.099
UniProt P62917 | 1.03 ± 0.088 | 1.03 ± 0.063 | 1.11 ± 0.17 | 1.01 ± 0.19 | 0.958 ± 0.22 | 0.977 ± 0.23 | 0.772 ± 0.2 | 1.05 ± 0.29
AP3M2 (UniProt P53677) | 0.965 ± 0.17 | 1.09 ± 0.16 | 1 ± 0.019 | 0.955 ± 0.1 | 0.943 ± 0.13 | 0.957 ± 0.12 | 0.9 ± 0.034 | 0.883 ± 0.11
PAPOLA (UniProt P51003) | 0.949 ± 0.047 | 0.991 ± 0.043 | 0.889 ± 0.052 | 0.919 ± 0.058 | 0.868 ± 0.042 | 0.8908 ± 0.0041 | 0.871 ± 0.027 | 0.904 ± 0.061
ARHGDIA (UniProt P52565) | 0.958 ± 0.015 | 0.9706 ± 0.0064 | 0.919 ± 0.038 | 0.894 ± 0.046 | 0.858 ± 0.072 | 0.884 ± 0.062 | 0.868 ± 0.061 | 0.848 ± 0.078
HDGF (UniProt P51858) | 0.863 ± 0.067 | 0.898 ± 0.086 | 0.914 ± 0.058 | 0.861 ± 0.11 | 0.817 ± 0.088 | 0.886 ± 0.11 | 0.911 ± 0.057 | 0.913 ± 0.055
UniProt P54819 and related entries | 0.881 ± 0.047 | 0.854 ± 0.028 | 1 ± 0.072 | 0.974 ± 0.075 | 0.949 ± 0.073 | 0.942 ± 0.095 | 0.901 ± 0.13 | 0.97 ± 0.082
UniProt P55201 and related entries | 1.08 ± 0.055 | 1.13 ± 0.069 | 1.07 ± 0.16 | 1.04 ± 0.2 | 1.09 ± 0.17 | 1.17 ± 0.13 | 1.16 ± 0.14 | 1.21 ± 0.23
UniProt P78527 | 1.14 ± 0.1 | 1.22 ± 0.19 | 1.12 ± 0.16 | 1.21 ± 0.26 | 1.23 ± 0.24 | 1.21 ± 0.24 | 1.17 ± 0.19 | 1.1 ± 0.19
UniProt P50570-4 | 0.999 ± 0.043 | 1.01 ± 0.038 | 0.943 ± 0.028 | 0.951 ± 0.029 | 0.945 ± 0.024 | 0.919 ± 0.026 | 0.921 ± 0.031 | 0.912 ± 0.014
UniProt P51531 and related entries | 1.08 ± 0.034 | 1.1 ± 0.043 | 1.11 ± 0.027 | 1.14 ± 0.018 | 1.22 ± 0.064 | 1.21 ± 0.038 | 1.253 ± 0.0096 | 1.2 ± 0.025
UniProt P53609 and related entries | 1.02 ± 0.025 | 1.02 ± 0.05 | 0.942 ± 0.019 | 0.901 ± 0.039 | 0.885 ± 0.011 | 0.887 ± 0.024 | 0.861 ± 0.071 | 0.857 ± 0.058
UniProt P63272 | 0.953 ± 0.047 | 0.975 ± 0.044 | 0.97 ± 0.014 | 0.97 ± 0.012 | 0.955 ± 0.028 | 0.95 ± 0.021 | 0.919 ± 0.058 | 0.937 ± 0.0094
UniProt P57076 | 0.937 ± 0.047 | 0.878 ± 0.076 | 0.982 ± 0.064 | 0.944 ± 0.087 | 0.94 ± 0.11 | 0.924 ± 0.097 | 0.912 ± 0.084 | 0.933 ± 0.059
